One molecule from PubChem BioAssay AID1963320 (National Center for Advancing Translational Sciences (NCATS), 2024) can be followed below.

Amino acid sequences for entries named in this document (tags omitted).
UniProt P08659, whole entry, looked up: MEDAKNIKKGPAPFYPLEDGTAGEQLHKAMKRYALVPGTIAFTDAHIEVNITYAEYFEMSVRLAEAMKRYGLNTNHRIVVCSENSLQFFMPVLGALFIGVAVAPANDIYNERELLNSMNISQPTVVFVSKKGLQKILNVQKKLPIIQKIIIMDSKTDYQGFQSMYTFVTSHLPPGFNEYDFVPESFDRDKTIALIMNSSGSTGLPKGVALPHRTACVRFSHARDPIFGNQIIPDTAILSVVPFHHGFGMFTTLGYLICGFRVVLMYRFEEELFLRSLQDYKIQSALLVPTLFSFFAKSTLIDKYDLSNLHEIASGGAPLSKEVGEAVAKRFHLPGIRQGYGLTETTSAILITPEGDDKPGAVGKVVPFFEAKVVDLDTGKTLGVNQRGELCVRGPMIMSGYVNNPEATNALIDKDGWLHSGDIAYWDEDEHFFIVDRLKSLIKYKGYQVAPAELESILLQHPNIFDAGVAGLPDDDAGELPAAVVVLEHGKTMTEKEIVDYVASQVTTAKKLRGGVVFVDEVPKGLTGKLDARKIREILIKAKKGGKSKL

About 560 (43%) of roughly 1,300 compounds were called active. Another 39% or so got no clear call; they are omitted. Calls follow the shape of the dose curve; as a rule, active = well fitted inhibition curve with a large enough effect; inconclusive = small, poorly fitted or top-dose-only effect; inactive = flat fitted curve, though single readings scatter. So high a share suggests a set chosen from earlier hits. The entries are a selection whose mix differs from that of the whole data set.
% is scaled to controls: 0 for no effect and ±100 for the full control effect.
Also: nearly all actives have a fitted effect of over 70% in size.

The target of the experiment is Luciferin 4-monooxygenase (Photinus pyralis) (UniProt P08659). Briefly: Firefly luciferase (FLuc-C-HiBiT) enzymatic inhibition screen - Functional assay. The note with it: purified FLuc-C-HiBiT enzyme, luciferin luminescence; at 49.3 µM (top of the series). The source says: PI: James Inglese Ph.D. National Center for Advancing Translational Sciences (NCATS), National Institute of Health (NIH), Maryland Discovery and optimization of novel protein-binding ligands underlies many of the methods and applications of biology, drug discovery, clinical diagnostics, and environmental toxicology. Assays for detecting the interaction of, for example, a molecule with a macromolecular target also referred to here as the target of interest (TOI) is dependent on a compatible output technology. Depending on the nature and knowledge surrounding the TOI, whether a receptor, enzyme, regulatory subunit or scaffold, or a sequence-defined nucleic acid folded into a complex tertiary structure, assay strategies can vary widely. Here we exploit ligand-biased changes in the structural dynamics of the target protein to control reporter alpha complementation allowing a non-competitive, non-functional, non-separation measure of ligand-target interaction. […]
1. […] Functional assay measured using CCD-based camera (ViewLux) with settings as follows: Exposure, 10 sec; Gain, High; Speed, Slow; Binning, 2X. […]
In general terms: With HiBiT, luminescence reflects the tagged protein that the partner subunit can reach.
As for `CN1CCNc2cc(-c3ccc([S+](C)(=O)[O-])cc3)ncc2C1`, the activity change, negative = inhibition is inactive: -8.69%.
